Assay results taken from patent publication US4545991A, “Difficidin and derivative antibacterials” (Merck & Co., Inc., priority 1983, dated 1985).

Test system: calf intestinal mucosa alkaline phosphatase
Assay: alkaline phosphatase dephosphonylation of oxydifficidin
Type: biochemical

Q: What does the source list for `C=CC=C(C)CCC1CC=CC=C(C)C(OP(=O)(O)O)CCCC=CC=CC=CC(O)C(C)C(=C)CC(=O)O1` (centres unmarked) [Oxydifficidin, oxydifficidin]?
A: inactivation by alkaline phosphatase: ready inactivation; transformation by alkaline phosphatase (60 min. incubation at 28° C., TRIS pH 8.0): the majority of oxydifficidin (Rf 0.59) had been transformed into a new substance
